This note sets out measurements from PubChem BioAssay AID248 (DTP/NCI, 2004).

This assay has as its system L1210 leukemia ip in BDF1 mice, survival T/C. The experiment in a line: NCI In Vivo Anticancer Drug Screen. Data for tumor model L1210 Leukemia (intraperitoneal) in B6D2F1 (BDF1) mice. Conditions: T/C endpoint: mean survival time, higher T/C = longer survival.
Setting [1] is: dose: 400.0 mg/kg/injection, schedule: Q04DX003 (ip), vehicle: saline with Tween-80.
Setting [2] is: dose: 400.0 mg/kg/injection, schedule: Q04DX003 (ip), vehicle: Klucel (hydroxypropylcellulose) (HPC).
Setting [3] is: dose: 200.0 mg/kg/injection, schedule: Q01DX001 (ip), vehicle: saline.
The mark [4] stands for this setting: dose: 400.0 mg/kg/injection, schedule: Q01DX001 (ip), vehicle: saline.
Setting [5] is: dose: 400.0 mg/kg/injection, schedule: Q01DX009 (ip), vehicle: Klucel (hydroxypropylcellulose) (HPC).
Setting [6] is: dose: 400.0 mg/kg/injection, schedule: Q01DX009 (ip), vehicle: saline with Tween-80.
Where [7] appears, read: dose: 400.0 mg/kg/injection, schedule: Q04DX003 (ip), vehicle: saline.

The structures appear in SMILES notation. The list is a part of this screen's results and no random one: it is rich in T/C values a quarter to a half above the control, in often repeated tests (any T/C) and in doses without a T/C. Further doses and runs are listed elsewhere. T/C: endpoint of the treated group in % of that of the vehicle group. Some entries give survivors of the animals treated and no T/C: the source holds a T/C of zero for them, seemingly a mark for toxic or unscored doses. Some doses without a T/C left all or most animals alive at the check, yet need not have been tolerated: the source hardly ever lists a survival T/C far under the control, and the zero likely stands for such cases as well. Counts of survivors are from the toxicity check (mostly the fifth day) where no day follows; animals may have died later. Schedule codes are those of the source, read here as Q, the interval in days (D) or hours (H), X, the number of doses. Where survival is the endpoint, this PubChem deposit counts one and a half times the control or more as active, and values a quarter to a half above the control carry no call in these data; other NCI protocols may use other cut-offs.

On to `CC(=O)N/N=C/c1ccc2c(c1)CCC2`, for which, under setting [1], the survivor count is listed as 0 of 6.

For `CCOC(=O)CCSC`, the survivor count under setting [1] is listed as 3 of 6.

As for `C/C(=N\NC(=O)c1ccc([N+](=O)[O-])cc1)c1ccccc1`, the survivor count reads like this: (dose: 50.0 mg/kg/injection, schedule: Q01DX001 (ip), vehicle: carboxymethylcellulose (CMC)) 3 of 4; (dose: 400.0 mg/kg/injection, schedule: Q01DX001 (ip), vehicle: carboxymethylcellulose (CMC)) 1 of 4.

In the case of `Nc1ccc(CSc2ccc(Cl)cc2)cc1`, the survivor count (dose: 115.0 mg/kg/injection, schedule: Q01DX009 (ip), vehicle: Klucel (hydroxypropylcellulose) (HPC)) is recorded as 2 of 3.

For the compound `CCCCCCCCCCCC(=O)NC(=S)Nc1nccs1`, the survivor count reads like this: (dose: 100.0 mg/kg/injection, schedule: Q04DX003 (ip), vehicle: Klucel (hydroxypropylcellulose) (HPC)) 6 of 6; (dose: 200.0 mg/kg/injection, schedule: Q04DX003 (ip), vehicle: Klucel (hydroxypropylcellulose) (HPC)) 6 of 6; under setting [2], 6 of 6.

Turning to `O=C1NC2CC3CC(C2)CC1C3`, the survivor count (dose: 100.0 mg/kg/injection, schedule: Q04DX003 (ip), vehicle: alcohol) is on record as 0 of 6; the survivor count (dose: 200.0 mg/kg/injection, schedule: Q04DX003 (ip), vehicle: alcohol) is 0 of 6; the survivor count (dose: 400.0 mg/kg/injection, schedule: Q04DX003 (ip), vehicle: alcohol) is given as 0 of 6.

Turning to `O=C(CNC(=O)c1ccc(C(=O)NCC(=O)Nc2ccc(C3=NCCCN3)cc2)cc1)Nc1ccc(C2=NCCCN2)cc1`, the T/C reads like this: (dose: 5.0 mg/kg/injection, schedule: Q01DX009 (ip), vehicle: saline) 133 % of control; (dose: 5.0 mg/kg/injection, schedule: Q01DX015 (ip), vehicle: methylcellulose (MC)) 149 % of control; (dose: 10.0 mg/kg/injection, schedule: Q01DX015 (ip), vehicle: methylcellulose (MC)) 129 % of control; (dose: 20.0 mg/kg/injection, schedule: Q01DX009 (ip), vehicle: saline) 140 % of control. The survivor count was 0 of 6 (dose: 61.0 mg/kg/injection, schedule: Q01DX015 (ip), vehicle: methylcellulose (MC)); 2 of 6 (dose: 100.0 mg/kg/injection, schedule: Q01DX001 (ip), vehicle: methylcellulose (MC)); 0 of 6 (dose: 123.0 mg/kg/injection, schedule: Q01DX015 (ip), vehicle: methylcellulose (MC)); 0 of 6 (dose: 200.0 mg/kg/injection, schedule: Q01DX001 (ip), vehicle: methylcellulose (MC)); 0 of 6 (dose: 246.0 mg/kg/injection, schedule: Q01DX015 (ip), vehicle: methylcellulose (MC)).

In the case of `O=C(O)c1c(O)cc(O)cc1O`, the survivor count under setting [1] is reported as 1 of 6.

For `O=C(O)C(O)C(Br)C(=O)O` (stereo not given), the survivor count reads like this: (dose: 25.0 mg/kg/injection, schedule: Q04DX003 (ip), vehicle: saline) 2 of 6; under setting [3], 0 of 6; under setting [4], 0 of 6.

For the compound `O=C(O)C1C(c2ccccc2)C2(c3ccccc3)C(=O)C1(c1ccccc1)C(c1ccccc1)=C2c1ccccc1` (stereo not given), under “dose: 100.0 mg/kg/injection, schedule: Q01DX001 (ip), vehicle: saline with Tween-80”, the survivor count is 3 of 3.

`CCCCOP(=O)(CCl)OCCCC`: the survivor count under setting [5] is 3 of 6.

Consider `C/C=C(/C#N)c1ccccc1`, for which the survivor count under setting [1] is recorded as 0 of 6.

With `CNC(=O)Oc1cc2ccccc2cc1C(=O)Nc1cc(OC)ccc1OC`, the survivor count under setting [5] was 6 of 6.

With `CCc1c(CBr)c(=O)[nH]c2ccccc12`, the survivor count reads like this: (dose: 200.0 mg/kg/injection, schedule: Q01DX001 (ip), vehicle: other) 1 of 4; (dose: 400.0 mg/kg/injection, schedule: Q01DX001 (ip), vehicle: other) 1 of 4.

As to `CCCCOP(=O)(/C=C/c1ccccc1)OCCCC`, for the setting “dose: 400.0 mg/kg/injection, schedule: Q04DX002 (ip), vehicle: saline with Tween-80”, the survivor count is on record as 0 of 3.

For the compound `CNC(Cl)(Cl)NC`, the survivor count was 3 of 3 (dose: 200.0 mg/kg/injection, schedule: Q01DX009 (ip), vehicle: saline) and 2 of 3 (dose: 400.0 mg/kg/injection, schedule: Q04DX002 (ip), vehicle: saline).

With `C[n+]1c2ccccc2cc2ccc(N=[N+]=[N-])cc21`, the survivor count by setting is: (dose: 35.0 mg/kg/injection, schedule: Q04DX003 (ip), vehicle: saline) 3 of 6; (dose: 50.0 mg/kg/injection, schedule: Q01DX001 (ip), vehicle: saline) 0 of 6; (dose: 55.0 mg/kg/injection, schedule: Q01DX009 (ip), vehicle: saline) 0 of 6; (dose: 55.0 mg/kg/injection, schedule: Q04DX003 (ip), vehicle: saline) 0 of 6; (dose: 80.0 mg/kg/injection, schedule: Q01DX009 (ip), vehicle: saline) 0 of 6; (dose: 80.0 mg/kg/injection, schedule: Q04DX003 (ip), vehicle: saline) 0 of 6. Moreover, the survivor count was 1 of 6 (dose: 100.0 mg/kg/injection, schedule: Q01DX001 (ip), vehicle: saline); 0 of 6 under setting [3]; 0 of 6 under setting [4].

In the case of `O=S(=O)(n1ccnc1)C(F)(F)F`, the survivor count (dose: 80.0 mg/kg/injection, schedule: Q01DX001 (ip), vehicle: saline) is on record as 1 of 6.

Turning to `CN(C)C(=S)SC(=S)N(C)C`, the survivor count (dose: 100.0 mg/kg/injection, schedule: Q04DX002 (ip), vehicle: Klucel (hydroxypropylcellulose) (HPC)) was 3 of 3.

On to `CCCCCCCCCCCCN1CCC(=O)NC1=O`, for which the survivor count under setting [6] was 6 of 6.

As to `COc1cc(/C=C2\C(=O)C=C(C)CC2(C)C)ccc1O`, the survivor count by setting is: (dose: 100.0 mg/kg/injection, schedule: Q04DX003 (ip), vehicle: saline with Tween-80) 6 of 6; under setting [1], 6 of 6.

Regarding `Cc1ccc(C2(C(=O)O)CCCCC2)cc1`, the survivor count under setting [2] is reported as 3 of 6.

`CN=C1c2ccccc2C2(c3ccccc3)C1N2C` (stereo not given): the survivor count under setting [6] is reported as 2 of 6.

For `CN1CSCC1C(=O)O` (stereo not given), under setting [7], the survivor count is 5 of 6.

As for `C/C=C/C(=O)OCCC[N+](C)(C)C`, the survivor count (dose: 6.25 mg/kg/injection, schedule: Q01DX009 (ip), vehicle: saline) is on record as 0 of 6; the survivor count (dose: 12.5 mg/kg/injection, schedule: Q01DX009 (ip), vehicle: saline) is on record as 0 of 6; the survivor count (dose: 25.0 mg/kg/injection, schedule: Q01DX009 (ip), vehicle: saline) was 0 of 6; the survivor count (dose: 50.0 mg/kg/injection, schedule: Q04DX003 (ip), vehicle: saline) is given as 2 of 6; the survivor count (dose: 100.0 mg/kg/injection, schedule: Q04DX003 (ip), vehicle: saline) was 0 of 6; the survivor count (dose: 200.0 mg/kg/injection, schedule: Q04DX003 (ip), vehicle: saline) is given as 0 of 6. Moreover, the survivor count under setting [7] was 0 of 6.

As to `NC(=S)N/N=C/C=N/NC(N)=S`, the survivor count by setting is: (dose: 10.0 micrograms/kg/injection, schedule: Q01DX009 (ip), vehicle: carboxymethylcellulose (CMC)) 3 of 6; (dose: 50.0 micrograms/kg/injection, schedule: Q01DX009 (ip), vehicle: carboxymethylcellulose (CMC)) 1 of 6.

As to `O=[N+]([O-])c1c[n+]([O-])ccc1Cl`, the survivor count reads like this: (dose: 75.0 mg/kg/injection, schedule: Q01DX001 (ip), vehicle: saline) 0 of 6; (dose: 150.0 mg/kg/injection, schedule: Q01DX001 (ip), vehicle: saline) 0 of 6; (dose: 300.0 mg/kg/injection, schedule: Q01DX001 (ip), vehicle: saline) 0 of 6.

On to `NOCc1csc(Nc2ccccc2)n1`, for which, under setting [7], the survivor count is listed as 0 of 6.

Consider `CCOC(=O)C(OC(=O)c1ccccc1)(OC(=O)c1ccccc1)C(=O)OCC`, for which the survivor count under setting [4] is on record as 6 of 6.

In the case of `O=C(CCl)Nc1ccccc1`, for the setting “dose: 400.0 mg/kg/injection, schedule: Q04DX002 (ip), vehicle: Klucel (hydroxypropylcellulose) (HPC)”, the survivor count is reported as 1 of 3.
